In the supplement of paper PMC10849652:
This is one part of the list. Residues, ends and D or L forms follow the SMILES beside them. *: point of attachment. Cbz = O=C(OCc1ccccc1)*

Protein sequences, listed by entry. Tags and fused reporters are not part of them. Lines headed by an entry give the natural chain unless they say otherwise; changes in a name come on top.
UniProt P32019: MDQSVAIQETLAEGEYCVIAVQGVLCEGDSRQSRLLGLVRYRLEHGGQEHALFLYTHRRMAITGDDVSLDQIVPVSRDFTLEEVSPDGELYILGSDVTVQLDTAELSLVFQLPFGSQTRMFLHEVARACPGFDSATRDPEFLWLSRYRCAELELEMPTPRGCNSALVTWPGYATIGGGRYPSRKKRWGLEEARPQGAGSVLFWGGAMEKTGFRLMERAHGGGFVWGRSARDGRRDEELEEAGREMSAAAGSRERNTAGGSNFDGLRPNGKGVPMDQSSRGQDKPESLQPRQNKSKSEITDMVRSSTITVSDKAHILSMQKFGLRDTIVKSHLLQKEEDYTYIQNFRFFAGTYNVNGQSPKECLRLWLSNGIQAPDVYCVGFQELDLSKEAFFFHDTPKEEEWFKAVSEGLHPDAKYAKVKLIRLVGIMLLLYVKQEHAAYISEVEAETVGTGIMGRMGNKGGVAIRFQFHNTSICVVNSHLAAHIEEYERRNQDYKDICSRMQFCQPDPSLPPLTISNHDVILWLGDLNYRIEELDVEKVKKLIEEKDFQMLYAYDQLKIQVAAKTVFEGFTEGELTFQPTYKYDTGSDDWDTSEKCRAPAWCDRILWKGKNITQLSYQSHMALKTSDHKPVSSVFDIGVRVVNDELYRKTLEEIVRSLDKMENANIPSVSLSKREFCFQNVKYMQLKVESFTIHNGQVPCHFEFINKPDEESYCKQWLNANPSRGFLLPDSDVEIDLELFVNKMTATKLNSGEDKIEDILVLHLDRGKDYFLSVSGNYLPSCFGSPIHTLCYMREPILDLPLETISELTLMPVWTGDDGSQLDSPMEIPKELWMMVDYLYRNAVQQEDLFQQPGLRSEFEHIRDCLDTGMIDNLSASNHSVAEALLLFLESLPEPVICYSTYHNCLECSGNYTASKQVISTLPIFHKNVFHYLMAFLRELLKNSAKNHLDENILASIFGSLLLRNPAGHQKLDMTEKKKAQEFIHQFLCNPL
UniProt Q16891: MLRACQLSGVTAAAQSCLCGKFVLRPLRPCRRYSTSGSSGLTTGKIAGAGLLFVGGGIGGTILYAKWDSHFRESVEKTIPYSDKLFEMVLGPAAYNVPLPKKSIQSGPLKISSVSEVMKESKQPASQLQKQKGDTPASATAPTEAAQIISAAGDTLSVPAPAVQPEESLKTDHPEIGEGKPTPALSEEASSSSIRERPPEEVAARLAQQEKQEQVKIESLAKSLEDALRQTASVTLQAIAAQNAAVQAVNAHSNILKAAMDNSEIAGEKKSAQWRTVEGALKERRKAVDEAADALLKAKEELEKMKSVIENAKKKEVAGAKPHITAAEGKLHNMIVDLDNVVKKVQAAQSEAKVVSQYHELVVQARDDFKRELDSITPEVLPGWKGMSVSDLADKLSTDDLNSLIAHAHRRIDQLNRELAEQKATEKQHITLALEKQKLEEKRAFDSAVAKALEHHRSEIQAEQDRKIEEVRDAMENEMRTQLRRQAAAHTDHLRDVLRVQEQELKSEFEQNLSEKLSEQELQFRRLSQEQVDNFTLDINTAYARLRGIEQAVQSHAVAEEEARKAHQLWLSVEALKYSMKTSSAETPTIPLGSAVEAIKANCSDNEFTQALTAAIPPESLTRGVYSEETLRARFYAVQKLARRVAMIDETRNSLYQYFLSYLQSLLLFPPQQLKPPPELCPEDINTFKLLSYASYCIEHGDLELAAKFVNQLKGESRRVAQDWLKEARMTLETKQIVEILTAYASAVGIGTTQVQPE
UniProt Q969P0: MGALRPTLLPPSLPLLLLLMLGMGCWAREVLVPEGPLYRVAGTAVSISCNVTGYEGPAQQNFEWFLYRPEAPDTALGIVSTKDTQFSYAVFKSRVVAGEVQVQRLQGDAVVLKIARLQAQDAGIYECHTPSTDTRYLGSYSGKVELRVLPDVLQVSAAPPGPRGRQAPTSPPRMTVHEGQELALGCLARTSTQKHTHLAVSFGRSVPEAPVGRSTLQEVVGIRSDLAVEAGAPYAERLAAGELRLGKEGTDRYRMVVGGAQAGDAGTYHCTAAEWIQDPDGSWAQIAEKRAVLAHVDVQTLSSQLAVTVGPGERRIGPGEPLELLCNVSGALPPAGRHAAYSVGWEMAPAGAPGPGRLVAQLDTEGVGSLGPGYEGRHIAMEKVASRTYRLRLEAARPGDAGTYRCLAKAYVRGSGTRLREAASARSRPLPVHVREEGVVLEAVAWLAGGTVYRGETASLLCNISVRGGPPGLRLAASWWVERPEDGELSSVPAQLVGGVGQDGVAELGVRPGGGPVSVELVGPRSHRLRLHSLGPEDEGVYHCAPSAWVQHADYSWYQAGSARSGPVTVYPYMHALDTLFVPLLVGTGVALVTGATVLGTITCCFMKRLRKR
UniProt Q14624: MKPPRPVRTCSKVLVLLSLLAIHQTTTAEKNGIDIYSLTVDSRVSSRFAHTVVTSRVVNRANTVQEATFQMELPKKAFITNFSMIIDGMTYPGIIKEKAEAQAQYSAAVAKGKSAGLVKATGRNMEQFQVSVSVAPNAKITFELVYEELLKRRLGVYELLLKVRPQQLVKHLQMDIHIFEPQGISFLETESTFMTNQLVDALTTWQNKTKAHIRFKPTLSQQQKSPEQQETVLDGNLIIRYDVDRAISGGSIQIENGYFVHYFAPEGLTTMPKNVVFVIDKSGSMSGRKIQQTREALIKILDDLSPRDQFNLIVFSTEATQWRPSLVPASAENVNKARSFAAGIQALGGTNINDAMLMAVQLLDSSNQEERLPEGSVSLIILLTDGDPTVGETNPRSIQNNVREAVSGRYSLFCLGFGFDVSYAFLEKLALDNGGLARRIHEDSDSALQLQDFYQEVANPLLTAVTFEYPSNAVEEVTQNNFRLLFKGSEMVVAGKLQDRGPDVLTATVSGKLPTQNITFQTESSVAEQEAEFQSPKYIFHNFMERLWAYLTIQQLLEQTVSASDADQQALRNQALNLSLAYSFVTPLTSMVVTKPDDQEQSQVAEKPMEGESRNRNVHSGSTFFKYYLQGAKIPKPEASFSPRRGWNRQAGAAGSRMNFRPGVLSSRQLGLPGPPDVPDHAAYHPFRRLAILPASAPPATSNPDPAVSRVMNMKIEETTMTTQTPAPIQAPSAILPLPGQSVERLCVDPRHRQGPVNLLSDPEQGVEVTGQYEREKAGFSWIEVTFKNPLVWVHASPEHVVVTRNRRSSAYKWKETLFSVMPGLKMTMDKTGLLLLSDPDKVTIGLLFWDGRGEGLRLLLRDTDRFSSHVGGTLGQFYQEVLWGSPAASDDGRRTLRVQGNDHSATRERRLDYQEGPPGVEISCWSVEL
UniProt Q12905: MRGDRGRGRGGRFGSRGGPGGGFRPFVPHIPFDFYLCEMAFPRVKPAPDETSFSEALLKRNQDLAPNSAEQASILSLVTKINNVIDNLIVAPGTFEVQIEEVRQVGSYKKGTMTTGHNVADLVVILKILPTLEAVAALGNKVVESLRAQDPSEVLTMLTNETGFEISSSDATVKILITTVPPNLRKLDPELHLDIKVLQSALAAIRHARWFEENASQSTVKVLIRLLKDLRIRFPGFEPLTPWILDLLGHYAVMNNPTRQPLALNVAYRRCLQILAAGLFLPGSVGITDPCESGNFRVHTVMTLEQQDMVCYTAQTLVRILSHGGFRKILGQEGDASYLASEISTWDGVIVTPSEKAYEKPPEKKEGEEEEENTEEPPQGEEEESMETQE
UniProt Q9H0C8: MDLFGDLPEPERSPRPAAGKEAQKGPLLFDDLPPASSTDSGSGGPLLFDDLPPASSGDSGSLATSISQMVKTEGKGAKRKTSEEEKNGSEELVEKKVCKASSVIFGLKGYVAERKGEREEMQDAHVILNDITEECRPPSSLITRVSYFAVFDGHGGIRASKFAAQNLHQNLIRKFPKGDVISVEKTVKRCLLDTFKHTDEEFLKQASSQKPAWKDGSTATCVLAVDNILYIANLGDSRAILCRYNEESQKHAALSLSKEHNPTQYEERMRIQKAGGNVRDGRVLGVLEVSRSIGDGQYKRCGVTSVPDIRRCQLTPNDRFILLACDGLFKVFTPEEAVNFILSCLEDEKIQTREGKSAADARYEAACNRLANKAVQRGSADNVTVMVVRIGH
UniProt Q01628, whole entry, looked up: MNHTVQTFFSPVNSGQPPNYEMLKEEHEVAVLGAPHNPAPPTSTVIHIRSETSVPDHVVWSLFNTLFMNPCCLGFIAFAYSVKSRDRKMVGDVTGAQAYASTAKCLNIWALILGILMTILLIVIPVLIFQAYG
UniProt Q9H1B7, whole entry, looked up: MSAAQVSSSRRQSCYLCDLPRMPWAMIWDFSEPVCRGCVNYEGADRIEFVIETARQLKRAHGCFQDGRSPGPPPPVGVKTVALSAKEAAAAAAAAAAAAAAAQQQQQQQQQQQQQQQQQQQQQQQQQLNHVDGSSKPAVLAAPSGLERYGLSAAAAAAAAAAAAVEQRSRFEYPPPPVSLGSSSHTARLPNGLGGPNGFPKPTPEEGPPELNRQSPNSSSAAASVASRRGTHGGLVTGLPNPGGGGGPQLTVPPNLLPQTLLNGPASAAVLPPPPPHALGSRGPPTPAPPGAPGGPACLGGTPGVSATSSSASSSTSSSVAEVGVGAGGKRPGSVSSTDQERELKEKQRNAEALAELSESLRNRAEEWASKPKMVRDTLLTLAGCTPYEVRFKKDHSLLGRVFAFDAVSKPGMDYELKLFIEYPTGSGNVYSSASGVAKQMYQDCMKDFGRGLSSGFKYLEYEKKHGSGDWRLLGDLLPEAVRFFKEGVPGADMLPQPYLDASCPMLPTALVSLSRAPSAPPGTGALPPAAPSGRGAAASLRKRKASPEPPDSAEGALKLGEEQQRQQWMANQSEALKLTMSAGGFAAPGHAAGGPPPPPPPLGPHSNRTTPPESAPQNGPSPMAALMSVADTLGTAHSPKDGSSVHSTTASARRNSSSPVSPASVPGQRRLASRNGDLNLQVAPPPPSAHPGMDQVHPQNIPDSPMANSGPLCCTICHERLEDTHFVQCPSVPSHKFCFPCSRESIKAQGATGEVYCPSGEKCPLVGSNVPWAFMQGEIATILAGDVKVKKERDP
UniProt Q14653: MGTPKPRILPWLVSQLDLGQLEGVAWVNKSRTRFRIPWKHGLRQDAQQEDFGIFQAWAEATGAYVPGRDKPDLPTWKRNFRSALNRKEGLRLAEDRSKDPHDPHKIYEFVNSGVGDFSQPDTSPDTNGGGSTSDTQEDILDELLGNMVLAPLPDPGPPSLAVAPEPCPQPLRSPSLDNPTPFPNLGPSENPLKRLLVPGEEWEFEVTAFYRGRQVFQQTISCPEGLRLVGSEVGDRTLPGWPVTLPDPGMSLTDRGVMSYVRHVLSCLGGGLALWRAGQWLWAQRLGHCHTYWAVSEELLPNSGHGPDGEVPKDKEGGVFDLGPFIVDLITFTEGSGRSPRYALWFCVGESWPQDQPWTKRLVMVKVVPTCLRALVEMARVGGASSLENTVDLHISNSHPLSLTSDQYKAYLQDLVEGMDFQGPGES
UniProt Q13418: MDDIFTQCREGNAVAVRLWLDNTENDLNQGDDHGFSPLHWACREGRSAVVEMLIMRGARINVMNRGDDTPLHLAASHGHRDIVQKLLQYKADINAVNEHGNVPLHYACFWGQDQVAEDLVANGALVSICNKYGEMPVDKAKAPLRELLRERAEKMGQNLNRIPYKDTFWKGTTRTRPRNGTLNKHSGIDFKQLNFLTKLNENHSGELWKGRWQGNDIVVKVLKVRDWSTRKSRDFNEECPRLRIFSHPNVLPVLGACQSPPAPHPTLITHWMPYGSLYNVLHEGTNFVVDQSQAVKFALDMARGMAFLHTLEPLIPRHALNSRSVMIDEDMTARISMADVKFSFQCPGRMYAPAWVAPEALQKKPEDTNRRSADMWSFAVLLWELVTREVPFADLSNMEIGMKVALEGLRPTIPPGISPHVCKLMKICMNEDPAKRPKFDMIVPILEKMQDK
UniProt Q9H6K1: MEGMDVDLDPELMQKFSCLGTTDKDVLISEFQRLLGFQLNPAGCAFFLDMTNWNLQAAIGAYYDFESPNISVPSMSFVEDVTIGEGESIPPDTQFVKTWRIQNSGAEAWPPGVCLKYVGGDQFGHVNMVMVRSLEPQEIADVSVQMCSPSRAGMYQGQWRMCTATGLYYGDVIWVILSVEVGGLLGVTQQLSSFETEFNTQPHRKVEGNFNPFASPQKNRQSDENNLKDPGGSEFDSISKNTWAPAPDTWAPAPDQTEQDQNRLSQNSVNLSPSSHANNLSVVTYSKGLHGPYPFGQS
UniProt Q13907: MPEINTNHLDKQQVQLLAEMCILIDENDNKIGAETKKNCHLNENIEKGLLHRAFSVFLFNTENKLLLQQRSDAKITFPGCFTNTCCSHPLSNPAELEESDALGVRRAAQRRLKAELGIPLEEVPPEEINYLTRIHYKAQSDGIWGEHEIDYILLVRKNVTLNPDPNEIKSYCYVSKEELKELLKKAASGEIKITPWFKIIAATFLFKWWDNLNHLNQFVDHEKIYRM

Columns and labels:
Test in all cases: log2 fold change, soluble protein after heating vs DMSO (PISA); higher = thermal stabilisation; K562 cells, 10 uM, 30 min; active = over 0.2 and 3.5 SD of the protein, either way, in both replicates (recomputed)
erlotinib = compound: C#Cc1cccc(Nc2ncnc3cc(OCCOC)c(OCCOC)cc23)c1 [erlotinib]
Method in brief: (§1)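 K562 cells at 2×10^6 cells/mL were exposed to 10 μM compound for 30 min, then aliquots were heated for 3 min across 48°C-58°C, pooled, and extracted in PBS containing 0.5% NP-40 at 4°C. The supernatant after 21,000xg for 90 min was taken as soluble protein and measured by TMTpro 16plex LC-MS/MS with channel sums equalised. Thermal stability is reported relative to control samples, with values from duplicates. Fold changes are given on a log2 scale.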

[1] = compound: C/C(=N\NC(=O)C1=CC(=CC=C1)S(=O)(=O)N2CCOCC2)/C3=C(C=CC(=C3)Cl)O
Method in brief: as §1

[2] = compound: C1=CC(=C(C=C1Cl)C2=NC3=NC=CN=C3C(=N2)NC4=CC=NC=C4)F
Method in brief: as §1

[3] = compound: C1=CC(=CC=C1C2=NC3=C(N2)C=C(C=C3)C(=O)N)OC4=CC=C(C=C4)Cl
Method in brief: as §1

[4] = compound: C1=CC2=C(C=CC(=C2)/C=C\3/C(=O)NC(=NCC4=CC=CS4)S3)N=C1
Method in brief: as §1

[5] = compound: C1=CC2=NC=CN=C2C=C1/C=C/3\C(=O)NC(=O)S3
Method in brief: as §1

[6] = compound: C1=CC=C(C=C1)C2=NC(=C(N2)C3=CC=NC=C3)C4=CC(=C(C=C4)Cl)O
Method in brief: as §1

[7] = compound: C1=CC=C2C(=C1)C3=NNC4=CC=CC(=C43)C2=O
Method in brief: as §1

[8] = compound: C1CCN(C1)C(=O)NC2=CC=CC(=C2)NC3=NC=C(C(=N3)NCCC4=CN=CN4)Br
Method in brief: as §1

[9] = compound: C1CN(CCC1(CC2=CC=C(C=C2)Cl)N)C3=NC=NC4=C3C=CN4
Method in brief: as §1

IRAK-1-4 Inhibitor I = compound: C1COCCN1CCN2C3=CC=CC=C3N=C2NC(=O)C4=CC(=CC=C4)[N+](=O)[O-] [IRAK-1-4 Inhibitor I]
Method in brief: as §1

ibrutinib = compound: C=CC(=O)N1CCC[C@@H](n2nc(-c3ccc(Oc4ccccc4)cc3)c3c(N)ncnc32)C1 [ibrutinib]
Method in brief: as §1

[10] = compound: CC(=O)c1cnc2ccc(-c3cc(Cl)c(O)c(Cl)c3)nc2c1N[C@H]1CC[C@H](CN(C)C)CC1
Method in brief: as §1

ralimetinib = compound: CC(C)(C)Cn1c(N)nc2ccc(-c3[nH]c(C(C)(C)C)nc3-c3ccc(F)cc3)nc21 [ralimetinib]
Method in brief: as §1

[11] = compound: CC(C)(O)CC(=O)NCCn1ccc2ncnc(Nc3ccc(Oc4cccc(C(F)(F)F)c4)c(Cl)c3)c21
Method in brief: as §1

[12] = compound: CC(C)C1=C2N=C(C=C(N2N=C1)NCC3=CC=CC=C3)NCCCCCCN
Method in brief: as §1

[13] = compound: CC(C)C[C@@H](C=O)NC(=O)[C@H](CC(C)C)NC(=O)[C@H](CC(C)C)NC(=O)OCc1ccccc1
Method in brief: as §1

pinometostat = compound: CC(C)N(C[C@H]1O[C@@H](n2cnc3c(N)ncnc32)[C@H](O)[C@@H]1O)[C@H]1C[C@@H](CCc2nc3cc(C(C)(C)C)ccc3[nH]2)C1 [pinometostat]
Method in brief: as §1

[14] = compound: CC1=C(C(CC(=O)N1)C2=CC=C(C=C2)C(F)(F)F)C(=O)NC3=C(C=C4C(=C3)C=NN4)F
Method in brief: as §1

[15] = compound: CC1=C(C2=C(C=C1)C(=O)C3=CC=CC=C3N2CCCN)C
Method in brief: as §1

Row | Target | log2 fold change (erlotinib) | log2 fold change [1] | log2 fold change [2] | log2 fold change [3] | log2 fold change [4] | log2 fold change [5] | log2 fold change [6] | log2 fold change [7] | log2 fold change [8] | log2 fold change [9] | log2 fold change (IRAK-1-4 Inhibitor I) | log2 fold change (ibrutinib) | log2 fold change [10] | log2 fold change (ralimetinib) | log2 fold change [11] | log2 fold change [12] | log2 fold change [13] | log2 fold change (pinometostat) | log2 fold change [14] | log2 fold change [15]
1 | ITGA5 (UniProt P08648) | inactive: 0.014 | inactive: -0.022 | inactive: 0.048 | inactive: 0.003 | inactive: 0.041 | inactive: 0.017 | inactive: -0.038 | inactive: -0.056 | inactive: -0.051 | inactive: 0.06 | inactive: 0.06 | inactive: 0.027 | inactive: -0.045 | inactive: -0.033 | inactive: -0.02 | inactive: 0.173 | inactive: 0.02 | inactive: -0.025 | inactive: -0.037 | inactive: 0.068
2 | IGF2R (UniProt P11717) | inactive: -0.052 | inactive: 0 | inactive: 0 | inactive: 0.025 | inactive: -0.012 | inactive: 0.003 | inactive: 0.009 | inactive: -0.021 | inactive: 0.002 | inactive: 0.012 | inactive: -0.002 | inactive: 0.013 | inactive: 0.016 | inactive: -0.038 | inactive: -0.007 | active: -0.218 | inactive: -0.009 | inactive: 0.005 | – | inactive: -0.071
3 | INPP5B (UniProt P32019) | inactive: -0.027 | inactive: 0.056 | inactive: 0.071 | inactive: -0.052 | inactive: 0.055 | inactive: -0.018 | inactive: 0.026 | inactive: -0.04 | inactive: -0.064 | inactive: -0.039 | inactive: -0.1 | inactive: -0.048 | inactive: -0.013 | inactive: 0.062 | inactive: -0.053 | active: -0.308 | inactive: 0.122 | inactive: 0.101 | – | inactive: -0.077
4 | IMMT isoform 4 (UniProt Q16891) | inactive: -0.027 | inactive: 0.026 | inactive: 0.057 | inactive: -0.006 | inactive: -0.021 | inactive: 0.011 | inactive: 0.012 | inactive: 0.001 | inactive: 0.012 | inactive: -0.013 | inactive: 0.037 | inactive: -0.005 | inactive: -0.015 | inactive: -0.044 | inactive: -0.035 | inactive: -0.179 | inactive: -0.013 | inactive: -0.013 | – | inactive: 0.01
5 | IGSF8 (UniProt Q969P0) | inactive: -0.013 | inactive: 0.011 | inactive: -0.046 | inactive: 0.065 | inactive: 0.038 | inactive: -0.014 | inactive: -0.077 | inactive: -0.054 | inactive: 0.124 | inactive: -0.088 | inactive: -0.001 | inactive: 0.11 | inactive: -0.094 | inactive: -0.087 | inactive: -0.074 | inactive: 0.19 | inactive: 0.168 | inactive: 0.029 | – | inactive: 0.213
6 | ITIH4 (UniProt Q14624) | inactive: -0.026 | inactive: -0.072 | inactive: 0.029 | inactive: 0.091 | inactive: 0.143 | inactive: -0.039 | inactive: 0.061 | inactive: -0.06 | inactive: -0.009 | inactive: 0.079 | inactive: 0.043 | inactive: 0.147 | inactive: 0.041 | inactive: -0.044 | inactive: 0.17 | inactive: 0.045 | inactive: -0.113 | inactive: -0.117 | – | inactive: -0.148
7 | ILF2 (UniProt Q12905) | inactive: -0.098 | inactive: -0.087 | inactive: -0.214 | inactive: 0.009 | inactive: -0.088 | inactive: 0.066 | inactive: -0.035 | inactive: -0.011 | inactive: -0.005 | inactive: -0.175 | inactive: -0.095 | inactive: 0.027 | inactive: 0.155 | inactive: 0.131 | inactive: 0.082 | inactive: 0.318 | inactive: -0.024 | inactive: 0.064 | – | inactive: 0.204
8 | IPO7 (UniProt O95373) | inactive: -0.015 | inactive: 0.078 | inactive: 0.034 | inactive: -0.003 | inactive: 0.01 | inactive: 0.056 | inactive: 0.026 | inactive: -0.019 | inactive: -0.004 | inactive: -0.05 | inactive: 0 | inactive: -0.063 | inactive: -0.021 | inactive: 0.032 | inactive: -0.153 | active: -0.309 | inactive: -0.069 | inactive: 0.012 | – | active: -0.221
9 | IFI30 (UniProt P13284) | inactive: 0.061 | inactive: 0.018 | inactive: -0.084 | inactive: 0.012 | inactive: -0.089 | inactive: 0.026 | inactive: 0.067 | inactive: 0.009 | inactive: -0.004 | inactive: 0.026 | inactive: 0.157 | inactive: 0.049 | inactive: 0.088 | inactive: -0.05 | inactive: 0.063 | inactive: 0.087 | inactive: -0.012 | inactive: 0.019 | – | inactive: -0.099
10 | ILKAP (UniProt Q9H0C8) | inactive: 0.096 | inactive: 0.26 | inactive: 0.071 | inactive: -0.02 | inactive: 0.126 | inactive: 0.011 | inactive: 0.022 | inactive: 0.088 | inactive: -0.092 | inactive: -0.076 | inactive: -0.07 | inactive: -0.016 | inactive: -0.055 | inactive: -0.024 | inactive: -0.133 | inactive: -0.078 | inactive: -0.053 | inactive: -0.004 | – | inactive: 0.032
11 | IFITM3 (UniProt Q01628) | inactive: -0.093 | inactive: -0.031 | active: -0.471 | inactive: 0.042 | inactive: -0.041 | inactive: 0.058 | inactive: 0.118 | inactive: -0.01 | inactive: -0.016 | inactive: -0.03 | inactive: -0.067 | inactive: -0.02 | inactive: -0.241 | inactive: 0.031 | inactive: 0.108 | inactive: -0.082 | inactive: 0.008 | inactive: -0.181 | – | inactive: 0.163
12 | IRF2BPL (UniProt Q9H1B7) | inactive: -0.021 | inactive: 0.023 | inactive: 0.068 | inactive: 0.04 | inactive: -0.03 | inactive: 0.064 | inactive: 0.089 | inactive: 0.025 | inactive: -0.041 | inactive: -0.022 | inactive: 0.031 | inactive: 0.038 | inactive: 0.008 | inactive: 0.013 | inactive: -0.18 | inactive: 0.076 | inactive: 0.063 | inactive: -0.206 | – | inactive: 0.093
13 | IRF3 (UniProt Q14653) | inactive: 0.042 | inactive: 0.056 | inactive: 0.019 | inactive: -0.022 | inactive: 0.046 | inactive: -0.022 | inactive: -0.036 | inactive: 0 | inactive: -0.055 | inactive: -0.008 | inactive: 0.002 | inactive: 0.13 | inactive: -0.019 | inactive: -0.037 | inactive: 0 | inactive: -0.065 | inactive: -0.015 | inactive: -0.002 | – | inactive: 0.02
14 | ILK (UniProt Q13418) | inactive: 0 | inactive: -0.119 | inactive: -0.086 | inactive: 0.016 | inactive: 0.091 | inactive: 0.002 | inactive: -0.056 | inactive: -0.056 | inactive: 0.068 | inactive: 0.008 | inactive: 0.029 | inactive: 0.004 | inactive: -0.029 | inactive: 0.027 | inactive: -0.081 | inactive: -0.094 | inactive: 0.128 | inactive: 0.083 | – | inactive: 0.01
15 | ILRUN (UniProt Q9H6K1) | inactive: -0.009 | inactive: 0.069 | inactive: -0.033 | inactive: 0.027 | inactive: 0.075 | inactive: 0.043 | inactive: -0.06 | inactive: -0.063 | inactive: 0.028 | inactive: 0.041 | inactive: 0.031 | inactive: 0.044 | inactive: -0.011 | inactive: -0.004 | inactive: -0.035 | inactive: -0.148 | inactive: 0.027 | inactive: -0.06 | – | inactive: -0.055
16 | IDI1 isoform 2 (UniProt Q13907) | inactive: 0.004 | active: -0.313 | inactive: 0.03 | inactive: -0.012 | inactive: -0.033 | inactive: -0.004 | inactive: -0.038 | inactive: 0.034 | inactive: -0.02 | inactive: 0.002 | inactive: 0.052 | inactive: 0.034 | inactive: -0.01 | inactive: -0.04 | inactive: 0.1 | inactive: 0.077 | inactive: -0.002 | inactive: -0.012 | – | inactive: -0.099

2 consecutive records already listed, for reference:
Row | Target | log2 fold change (erlotinib) | log2 fold change [1] | log2 fold change [2] | log2 fold change [3] | log2 fold change [4] | log2 fold change [5] | log2 fold change [6] | log2 fold change [7] | log2 fold change [8] | log2 fold change [9] | log2 fold change (IRAK-1-4 Inhibitor I) | log2 fold change (ibrutinib) | log2 fold change [10] | log2 fold change (ralimetinib) | log2 fold change [11] | log2 fold change [12] | log2 fold change [13] | log2 fold change (pinometostat) | log2 fold change [14] | log2 fold change [15]
12 | IRF2BPL (UniProt Q9H1B7) | inactive: -0.021 | inactive: 0.023 | inactive: 0.068 | inactive: 0.04 | inactive: -0.03 | inactive: 0.064 | inactive: 0.089 | inactive: 0.025 | inactive: -0.041 | inactive: -0.022 | inactive: 0.031 | inactive: 0.038 | inactive: 0.008 | inactive: 0.013 | inactive: -0.18 | inactive: 0.076 | inactive: 0.063 | inactive: -0.206 | – | inactive: 0.093
13 | IRF3 (UniProt Q14653) | inactive: 0.042 | inactive: 0.056 | inactive: 0.019 | inactive: -0.022 | inactive: 0.046 | inactive: -0.022 | inactive: -0.036 | inactive: 0 | inactive: -0.055 | inactive: -0.008 | inactive: 0.002 | inactive: 0.13 | inactive: -0.019 | inactive: -0.037 | inactive: 0 | inactive: -0.065 | inactive: -0.015 | inactive: -0.002 | – | inactive: 0.02
